According to patent US20250283871A1, “COMPOSITIONS AND METHODS FOR MODULATING THE INTERACTION BETWEEN SS18-SSX FUSION ONCOPROTEIN AND NUCLEOSOMES” (Dana-Farber Cancer Institute, Inc., priority 2020, published 2025):

Test system: BAF complex subunits and histone proteins
Assay: Mass spectrometry proteomics of purified HA-SS18 WT and HA-SS18-SSX1 complexes (Tables 5A-5E)
Parameters: species or system human
Details: HEK-293T; for Total (total peptides) / Unique (unique peptides): HA-SS18SSX1 purification, NE (soluble nuclear extract) fraction, peptides per identified protein; for Total (peptides) / Unique (peptides): HA-SS18WT_NE_peptides: HA-SS18 WT complexes purified from nuclear extract (NE), label = protein identified (Gene Symbol)

B1: PHGDH (protein, UniProt O43175 2-533, looked up)
D-3-phosphoglycerate …: AFANLRKVLISDSLDPCCRKILQDGGLQVVEKQNLSKEELIAELQDCEGLIVRSATKVTADVINAAEKLQVVGRAGTGVDNVDLEAATRKGILVMNTPNGNSLSAAELTCGMIMCLARQIPQATASMKDGKWERKKFMGTELNGKTLGILGLGRIGREVATRMQSFGMKTIGYDPIISPEVSASFGVQQLPLEEIWPLCDFITVHTPLLPSTTGLLNDNTFAQCKKGVRVVNCARGGIVDEGALLRALQSGQCAGAALDVFTEEPPRDRALVDHENVISCPHLGASTKEAQSRCGEEIAVQFVDMVKGKSLTGVVNAQALTSAFSPHTKPWIGLAEALGTLMRAWAGSPKGTIQVITQGTSLKNAGNCLSPAVIVGLLKEASKQADVNLVNAKLLVKEAGLNVTTSHSPAAPGEQGFGECLLAVALAGAPYQAVGLVQGTTPVLQGLNGAVFRPEVPLRRDLPLLLFRTQTSDPAMLPTMIGLLAEAGVRLLSYQTSLVSDGETWHVMGISSLLPSLEAWKQHVTEAFQFHF
Total (total peptides): 7 | Unique (unique peptides): 7 | Total (peptides): 6 | Unique (peptides): 5

B2: ATP2A2 (protein, UniProt P16615 1-1042, looked up)
Sarcoplasmic/endoplasmic …: MENAHTKTVEEVLGHFGVNESTGLSLEQVKKLKERWGSNELPAEEGKTLLELVIEQFEDLLVRILLLAACISFVLAWFEEGEETITAFVEPFVILLILVANAIVGVWQERNAENAIEALKEYEPEMGKVYRQDRKSVQRIKAKDIVPGDIVEIAVGDKVPADIRLTSIKSTTLRVDQSILTGESVSVIKHTDPVPDPRAVNQDKKNMLFSGTNIAAGKAMGVVVATGVNTEIGKIRDEMVATEQERTPLQQKLDEFGEQLSKVISLICIAVWIINIGHFNDPVHGGSWIRGAIYYFKIAVALAVAAIPEGLPAVITTCLALGTRRMAKKNAIVRSLPSVETLGCTSVICSDKTGTLTTNQMSVCRMFILDRVEGDTCSLNEFTITGSTYAPIGEVHKDDKPVNCHQYDGLVELATICALCNDSALDYNEAKGVYEKVGEATETALTCLVEKMNVFDTELKGLSKIERANACNSVIKQLMKKEFTLEFSRDRKSMSVYCTPNKPSRTSMSKMFVKGAPEGVIDRCTHIRVGSTKVPMTSGVKQKIMSVIREWGSGSDTLRCLALATHDNPLRREEMHLEDSANFIKYETNLTFVGCVGMLDPPRIEVASSVKLCRQAGIRVIMITGDNKGTAVAICRRIGIFGQDEDVTSKAFTGREFDELNPSAQRDACLNARCFARVEPSHKSKIVEFLQSFDEITAMTGDGVNDAPALKKAEIGIAMGSGTAVAKTASEMVLADDNFSTIVAAVEEGRAIYNNMKQFIRYLISSNVGEVVCIFLTAALGFPEALIPVQLLWVNLVTDGLPATALGFNPPDLDIMNKPPRNPKEPLISGWLFFRYLAIGCYVGAATVGAAAWWFIAADGGPRVSFYQLSHFLQCKEDNPDFEGVDCAIFESPYPMTMALSVLVTIEMCNALNSLSENQSLLRMPPWENIWLVGSICLSMSLHFLILYVEPLPLIFQITPLNVTQWLMVLKISLPVILMDETLKFVARNYLEPGKECVQPATKSCSFSACTDGISWPFVLLIMPLVIWVYSTDTNFSDMFWS
Total (total peptides): 8 | Unique (unique peptides): 7 | Total (peptides): 15 | Unique (peptides): 12

B3: SLC16A1 (protein, UniProt P53985 1-500, looked up)
Monocarboxylate transporter 1: MPPAVGGPVGYTPPDGGWGWAVVIGAFISIGFSYAFPKSITVFFKEIEGIFHATTSEVSWISSIMLAVMYGGGPISSILVNKYGSRIVMIVGGCLSGCGLIAASFCNTVQQLYVCIGVIGGLGLAFNLNPALTMIGKYFYKRRPLANGLAMAGSPVFLCTLAPLNQVFFGIFGWRGSFLILGGLLLNCCVAGALMRPIGPKPTKAGKDKSKASLEKAGKSGVKKDLHDANTDLIGRHPKQEKRSVFQTINQFLDLTLFTHRGFLLYLSGNVIMFFGLFAPLVFLSSYGKSQHYSSEKSAFLLSILAFVDMVARPSMGLVANTKPIRPRIQYFFAASVVANGVCHMLAPLSTTYVGFCVYAGFFGFAFGWLSSVLFETLMDLVGPQRFSSAVGLVTIVECCPVLLGPPLLGRLNDMYGDYKYTYWACGVVLIISGIYLFIGMGINYRLLAKEQKANEQKKESKEEETSIDVAGKPNEVTKAAESPDQKDTDGGPKEEESPV
Total (total peptides): 8 | Unique (unique peptides): 6 | Total (peptides): 10 | Unique (peptides): 5

B4: DDX28 (protein, UniProt Q9NUL7 1-540, looked up)
Probable ATP-dependent RNA …: MALTRPVRLFSLVTRLLLAPRRGLTVRSPDEPLPVVRIPVALQRQLEQRQSRRRNLPRPVLVRPGPLLVSARRPELNQPARLTLGRWERAPLASQGWKSRRARRDHFSIERAQQEAPAVRKLSSKGSFADLGLEPRVLHALQEAAPEVVQPTTVQSSTIPSLLRGRHVVCAAETGSGKTLSYLLPLLQRLLGQPSLDSLPIPAPRGLVLVPSRELAQQVRAVAQPLGRSLGLLVRDLEGGHGMRRIRLQLSRQPSADVLVATPGALWKALKSRLISLEQLSFLVLDEADTLLDESFLELVDYILEKSHIAEGPADLEDPFNPKAQLVLVGATFPEGVGQLLNKVASPDAVTTITSSKLHCIMPHVKQTFLRLKGADKVAELVHILKHRDRAERTGPSGTVLVFCNSSSTVNWLGYILDDHKIQHLRLQGQMPALMRVGIFQSFQKSSRDILLCTDIASRGLDSTGVELVVNYDFPPTLQDYIHRAGRVGRVGSEVPGTVISFVTHPWDVSLVQKIELAARRRRSLPGLASSVKEPLPQAT
Total (total peptides): 8 | Unique (unique peptides): 8 | Total (peptides): 6 | Unique (peptides): 6

B5: AGK (protein, UniProt Q53H12 1-422, looked up)
Acylglycerol kinase, …: MTVFFKTLRNHWKKTTAGLCLLTWGGHWLYGKHCDNLLRRAACQEAQVFGNQLIPPNAQVKKATVFLNPAACKGKARTLFEKNAAPILHLSGMDVTIVKTDYEGQAKKLLELMENTDVIIVAGGDGTLQEVVTGVLRRTDEATFSKIPIGFIPLGETSSLSHTLFAESGNKVQHITDATLAIVKGETVPLDVLQIKGEKEQPVFAMTGLRWGSFRDAGVKVSKYWYLGPLKIKAAHFFSTLKEWPQTHQASISYTGPTERPPNEPEETPVQRPSLYRRILRRLASYWAQPQDALSQEVSPEVWKDVQLSTIELSITTRNNQLDPTSKEDFLNICIEPDTISKGDFITIGSRKVRNPKLHVEGTECLQASQCTLLIPEGAGGSFSIDSEEYEAMPVEVKLLPRKLQFFCDPRKREQMLTSPTQ
Total (total peptides): 7 | Unique (unique peptides): 7 | Total (peptides): 11 | Unique (peptides): 10
